Measurements published in PMC8570500.
These are yes or no findings as the source states them, for the method shown. In cells and extracts the contact can be indirect. Some binding calls cover weakened binding; strength is not graded here. Sequences can lack the tags named with a protein.

The chains behind the UniProt entries cited, without tags or fusion partners. Where a name states a change or a piece, a line headed by the entry shows the natural chain unless it says otherwise. A line that says so, or that is headed by a name, gives the form on record, which may keep a tag or linker.
UniProt Q9Y3Z3: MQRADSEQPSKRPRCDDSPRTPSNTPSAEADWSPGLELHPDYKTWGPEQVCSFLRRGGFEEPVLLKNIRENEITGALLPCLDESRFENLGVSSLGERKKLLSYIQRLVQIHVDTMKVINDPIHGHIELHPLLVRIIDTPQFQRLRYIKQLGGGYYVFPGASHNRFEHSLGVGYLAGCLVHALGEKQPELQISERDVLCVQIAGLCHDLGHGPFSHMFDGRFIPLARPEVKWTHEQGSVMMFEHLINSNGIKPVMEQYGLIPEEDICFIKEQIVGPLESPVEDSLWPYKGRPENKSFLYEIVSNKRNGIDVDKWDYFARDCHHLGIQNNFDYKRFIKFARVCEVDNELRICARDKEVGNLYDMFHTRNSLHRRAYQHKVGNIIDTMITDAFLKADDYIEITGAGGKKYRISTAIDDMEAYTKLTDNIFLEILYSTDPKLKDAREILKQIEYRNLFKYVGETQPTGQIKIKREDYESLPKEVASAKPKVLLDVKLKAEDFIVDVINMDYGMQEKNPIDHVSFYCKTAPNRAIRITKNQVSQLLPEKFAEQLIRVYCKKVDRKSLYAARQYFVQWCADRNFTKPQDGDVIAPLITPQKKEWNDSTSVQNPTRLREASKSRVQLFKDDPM
TASOR-ΔPARP-Flag (TASOR short isoform deleted of its PARP-like domain, 106–319 aa) (Q9UK61, form named): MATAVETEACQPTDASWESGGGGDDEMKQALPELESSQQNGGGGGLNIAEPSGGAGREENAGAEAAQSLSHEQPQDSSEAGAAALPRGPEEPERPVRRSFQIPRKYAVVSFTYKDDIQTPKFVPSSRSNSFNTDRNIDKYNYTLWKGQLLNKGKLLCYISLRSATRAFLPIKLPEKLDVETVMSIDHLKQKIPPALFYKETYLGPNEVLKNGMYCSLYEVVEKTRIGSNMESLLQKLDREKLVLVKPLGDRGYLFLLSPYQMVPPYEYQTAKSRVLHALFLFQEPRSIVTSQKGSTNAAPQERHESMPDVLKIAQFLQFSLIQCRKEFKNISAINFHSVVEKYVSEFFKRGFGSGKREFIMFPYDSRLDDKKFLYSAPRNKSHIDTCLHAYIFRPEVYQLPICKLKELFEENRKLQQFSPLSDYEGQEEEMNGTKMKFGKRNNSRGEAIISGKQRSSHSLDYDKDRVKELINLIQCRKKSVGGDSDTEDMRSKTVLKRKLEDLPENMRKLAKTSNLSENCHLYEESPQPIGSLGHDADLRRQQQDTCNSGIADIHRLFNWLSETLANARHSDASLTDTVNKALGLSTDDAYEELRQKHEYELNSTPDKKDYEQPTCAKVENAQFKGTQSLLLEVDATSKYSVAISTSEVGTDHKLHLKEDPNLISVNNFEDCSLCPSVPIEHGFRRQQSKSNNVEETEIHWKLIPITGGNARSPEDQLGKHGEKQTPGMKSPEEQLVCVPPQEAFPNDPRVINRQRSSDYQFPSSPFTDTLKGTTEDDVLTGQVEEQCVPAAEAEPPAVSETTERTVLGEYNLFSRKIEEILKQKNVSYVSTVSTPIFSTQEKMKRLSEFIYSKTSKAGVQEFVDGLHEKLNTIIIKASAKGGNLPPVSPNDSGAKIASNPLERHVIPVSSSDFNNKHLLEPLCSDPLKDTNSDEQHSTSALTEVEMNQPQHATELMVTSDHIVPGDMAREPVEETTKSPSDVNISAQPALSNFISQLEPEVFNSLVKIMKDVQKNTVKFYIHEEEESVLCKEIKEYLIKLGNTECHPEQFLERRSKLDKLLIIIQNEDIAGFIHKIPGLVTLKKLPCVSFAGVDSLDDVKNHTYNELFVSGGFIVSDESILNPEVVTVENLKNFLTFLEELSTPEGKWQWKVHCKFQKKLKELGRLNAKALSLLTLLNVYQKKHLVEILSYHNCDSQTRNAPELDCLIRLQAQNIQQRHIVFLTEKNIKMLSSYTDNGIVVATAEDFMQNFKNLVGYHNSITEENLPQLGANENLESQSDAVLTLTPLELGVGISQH
TASOR-Flag (TASOR short isoform, 1512 amino-acids) (Q9UK61, form named): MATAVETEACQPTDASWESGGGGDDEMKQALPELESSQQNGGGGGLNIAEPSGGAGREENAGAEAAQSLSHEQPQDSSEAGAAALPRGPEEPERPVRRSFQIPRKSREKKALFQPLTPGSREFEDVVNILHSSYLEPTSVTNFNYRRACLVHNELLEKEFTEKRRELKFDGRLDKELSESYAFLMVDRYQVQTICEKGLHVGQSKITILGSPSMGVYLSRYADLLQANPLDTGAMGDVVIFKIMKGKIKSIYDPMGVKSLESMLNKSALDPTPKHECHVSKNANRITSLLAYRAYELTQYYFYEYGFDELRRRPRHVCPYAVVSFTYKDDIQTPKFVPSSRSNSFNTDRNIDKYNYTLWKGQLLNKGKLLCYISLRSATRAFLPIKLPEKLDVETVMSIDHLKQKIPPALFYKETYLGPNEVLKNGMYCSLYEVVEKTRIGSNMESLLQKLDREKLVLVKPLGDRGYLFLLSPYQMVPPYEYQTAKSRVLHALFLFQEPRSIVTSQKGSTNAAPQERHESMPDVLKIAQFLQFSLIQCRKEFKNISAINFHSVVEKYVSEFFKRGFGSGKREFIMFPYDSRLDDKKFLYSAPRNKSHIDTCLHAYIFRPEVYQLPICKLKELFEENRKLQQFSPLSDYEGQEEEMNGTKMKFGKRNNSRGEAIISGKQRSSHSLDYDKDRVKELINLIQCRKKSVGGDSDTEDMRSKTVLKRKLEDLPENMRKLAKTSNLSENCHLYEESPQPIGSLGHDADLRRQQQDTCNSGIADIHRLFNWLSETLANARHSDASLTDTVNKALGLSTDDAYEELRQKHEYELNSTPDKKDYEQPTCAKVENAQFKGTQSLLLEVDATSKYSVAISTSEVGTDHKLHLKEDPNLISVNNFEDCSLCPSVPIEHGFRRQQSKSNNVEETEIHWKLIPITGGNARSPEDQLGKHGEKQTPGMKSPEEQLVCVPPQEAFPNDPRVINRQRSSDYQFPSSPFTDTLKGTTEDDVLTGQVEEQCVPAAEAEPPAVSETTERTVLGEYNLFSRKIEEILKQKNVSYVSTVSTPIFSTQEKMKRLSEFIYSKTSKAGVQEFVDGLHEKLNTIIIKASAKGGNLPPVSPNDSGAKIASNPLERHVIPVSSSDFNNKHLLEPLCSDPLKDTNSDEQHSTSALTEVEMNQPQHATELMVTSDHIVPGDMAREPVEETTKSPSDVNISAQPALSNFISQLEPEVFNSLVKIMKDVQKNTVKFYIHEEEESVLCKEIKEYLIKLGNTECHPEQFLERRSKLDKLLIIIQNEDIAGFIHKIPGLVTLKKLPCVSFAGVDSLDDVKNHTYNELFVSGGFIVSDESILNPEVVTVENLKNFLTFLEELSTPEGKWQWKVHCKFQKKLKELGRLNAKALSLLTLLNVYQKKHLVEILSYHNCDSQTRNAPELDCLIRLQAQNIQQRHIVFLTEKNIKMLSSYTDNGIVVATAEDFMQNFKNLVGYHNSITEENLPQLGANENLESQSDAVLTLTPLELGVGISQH

Experiments:
SAMHD1-Flag (human) = SAMHD1-Flag (human) (UniProt Q9Y3Z3); assay: co-IP; anti-Flag immunoprecipitation of SAMHD1-Flag expressed in HeLa cells with or without HA-Vpx WT; endogenous DCAF1 revealed by western blot (Fig 1C)
[1] = biological target: TASOR-ΔPARP-Flag (TASOR short isoform deleted of its PARP-like domain, 106–319 aa) (UniProt Q9UK61); assay: co-IP; anti-Flag M2 affinity gel immunoprecipitation of TASOR-Flag (WT or ΔPARP) expressed in HeLa cells with or without HA-Vpx (WT or mutant); same lysis and wash buffers; HA-Vpx, endogenous DCAF1 and endogenous MPP8 revealed by western blot (Figs 1B, 2D, 3E, 5C, S6B)
[2] = biological target: TASOR-Flag (TASOR short isoform, 1512 amino-acids) (UniProt Q9UK61); assay: as above

Measured: binding

B1: HA-Vpx HIV-2.Gh1 WT (protein, UniProt P18045 1-112)
chain: MTDPRERVPPGNSGEETIGEAFEWLDRTIEALNREAVNHLPRELIFQVWQRSWRYWHDDQGMSPSYTKYRYLCLMQKAVFIHFKRGCTCLGGGHGPGGWRSGPPPPPPPGLV
binds: all assays above
